Data from patent US9289365B2, “Compositions and methods for stimulating collagen synthesis in the skin” (Avon Products, Inc., priority 2011, dated 2016).
For at least one compound, name, drawing or mass did not settle the structure. Some entries repeat one wording, which the source may state once for all of them.

Test system: Human dermal fibroblasts
Experiment: Stimulation of collagen synthesis in human dermal fibroblasts, procollagen type I C-peptide (PIP) EIA
Type: cell-based
Conditions: summary statement on Tables 1 and 2; 0.0005%, 48-hour incubation
Description: The compounds 1-5, and 8-9 were assayed for stimulation of collagen synthesis as follows. Human dermal fibroblasts (Cascade Biologics, Portland, Oreg.) were plated at 10,000 cells/well in 96-well culture plates in supplemented medium (DMEM, 10% Fetal Bovine Serum, 1% Penicillin/Streptomycin and 1% L-Glutamine) overnight in humidified atmosphere of 10% CO2 at 37° C. The next day, the medium was replaced with fresh medium (DMEM, 1% Penicillin/Streptomycin and 1% L-Glutamine) and the compounds dissolved DMSO were added to the wells in triplicate at a concentration of 0.0005%, DMSO solution was used a control. Following 48-hour incubation, the plates were removed from the incubator and the medium from each well was collected for the procollagen assay.
Collagen production was measured using procollagen type I C-peptide (PIP) EIA kit (Takara Bio, Inc., Japan). Briefly, the conditioned medium was diluted 1:10 in Sample Diluent, 20 μl of diluted conditioned medium and 100 μl of antibody-POD conjugate solution were added to the wells of the Takara HASA plate. The ELISA plate was incubated at 37° C. for 3 hours before the wells were washed four times with 400 μl of 1×PBS. […] The absorbance was measured on a spectrophotometer at 450 nm wavelength. The amount of procollagen peptide in the conditioned medium was calculated from the standard curve. […]

## CCc1c(C(=O)N2CCCC2)cnn1-c1ccccc1Cl [Compound 1]
  Stimulation of collagen synthesis (result in words): potent stimulators of collagen synthesis
